{"source": "patent US4252956A", "about": "“Derivatives of 1,4-dihydropyridine-3-carbothiol acids” (priority 1979, dated 1981)", "origin": "cited, not measured here", "conditions": "in vivo; cited from earlier work"}
{"smiles": "COC(=O)C1=C(C)NC(C)=C(C(=O)OC)C1c1ccccc1[N+](=O)[O-]", "note": "[2,6-dimethyl-3,5-dicarbometh-oxy-4-o-nitrophenyl-1,4-dihydropyridine]", "values": [{"measurement": "toxicity (prior art)", "value": "relatively toxic"}]}
